Earlier results, collected in patent publication US20120201914A1, “Method and Composition for Improving Animal Oral Health” (priority 2011, published 2012).
At least one structure is not confirmed: it was looked up by name or label, or the drawing left a doubt.

Test system: various oral pathogens, such as S. mutans, C. albicans, A. actinomycetemcomitans, F. nucleatum, and P. gingivalis
Conditions: against various oral pathogens; recent studies

Compound	antibacterial activity
CC/C=C\C/C=C\C/C=C\C/C=C\C/C=C\C/C=C\CCC(=O)O [DHA, docosahexaenoic acid]	antibacterial activities
CC/C=C\C/C=C\C/C=C\C/C=C\C/C=C\CCCC(=O)O [EPA, Eicosapentaenoic acid]	antibacterial activities
